{"source": "patent US9029518B2", "about": "“Method of extracting kaempferol-based antioxidants from Solenostemma arghel” (priority 2012, dated 2015)", "test_system": "response of mice to hot plate thermal stimulation", "experiment": "Hot plate test (central analgesic activity)", "format": "in vivo", "settings": "hot plate 55° C.", "method": "The total alcoholic extract was given at doses of 0.25, 0.5 and 1.0 g/kg, respectively, fractions were given at doses of 0.25 g/kg, and compounds were given at doses of 0.1 g/kg. The effect of the alcoholic extract, fractions and isolated compounds are shown in FIGS. 3A, 3B and 3C, respectively, and given below in Table 3.\nFIGS. 3A, 3B and 3C graphically illustrate the mean latency time (in seconds) until licking or jumping. This was recorded with mice being placed in a glass beaker, which was placed on a hot plate, which was maintained at 55° C. Measurements were taken 20, 60 and 90 minutes, respectively, after intraperitoneal injection of fractions (0.25 g/kg) and the isolated compounds (0.1 g/kg) from Solenostemma arghel, compared with the control group and methamizol.\nThis effect started after 20 min. and persisted for 90 min. after I.P. administration of the extracts.", "key": {"[1]": {"settings": "dose 0.1 g/kg I.P., time 20 min"}, "[2]": {"settings": "dose 0.1 g/kg I.P., time 90 min"}}, "note": "At least one compound was matched to its structure with a doubt left.", "data": [{"smiles": "C[C@H]1O[C@H](OC[C@H]2O[C@@H](Oc3c(-c4ccc(O)cc4)oc4cc(O)cc(O)c4c3=O)[C@H](O)[C@@H](O)[C@@H]2O)[C@@H](O)[C@@H](O)[C@@H]1O", "note": "[C2, kaempferol-3-rutinoside]", "values": [{"measurement": "Latency (mean latency time until licking or jumping)", "setting": "[1]", "value": "10.90 ^a * ± 1.37 ^ seconds"}, {"measurement": "Latency (mean latency time until licking or jumping)", "setting": "[2]", "value": "7.30 ^a * ± 1.49 ^ seconds"}]}, {"smiles": "O=c1c(O[C@@H]2O[C@H](CO)[C@@H](O)[C@H](O)[C@H]2O)c(-c2ccc(O[C@@H]3O[C@H](CO)[C@@H](O)[C@H](O)[C@H]3O)cc2)oc2cc(O)cc(O)c12", "note": "[C1, kaempferol-3, 4′-diglucoside]", "values": [{"measurement": "Latency (mean latency time until licking or jumping)", "setting": "[1]", "value": "9.10 ^a * ± 1.37 ^ seconds"}, {"measurement": "Latency (mean latency time until licking or jumping)", "setting": "dose 0.1 g/kg I.P., time 60 min", "value": "10.70 ^a * ± 1.49 ^ seconds"}, {"measurement": "Latency (mean latency time until licking or jumping)", "setting": "[2]", "value": "6.30 ^a * ± 0.95 ^ seconds"}]}, {"smiles": "Cc1c(N(C)CS(=O)(=O)[O-])c(=O)n(-c2ccccc2)n1C.[Na+]", "note": "[Methamizol, methamizol, reference compound]", "values": [{"measurement": "Latency (mean latency time until licking or jumping)", "setting": "dose 0.05 g/kg, time 60 min", "value": "7.90 ± 1.73", "unit": "s"}, {"measurement": "Latency (mean latency time until licking or jumping)", "setting": "dose 0.05 g/kg, time 90 min", "value": "6.10 ± 1.97", "unit": "s"}]}]}
